This assay has as its target Trypanothione reductase (Trypanosoma cruzi, UniProt P28593).

The chains behind the UniProt entries cited, without tags or fusion partners. Where a name states a change or a piece, a line headed by the entry shows the natural chain unless it says otherwise.
UniProt P28593: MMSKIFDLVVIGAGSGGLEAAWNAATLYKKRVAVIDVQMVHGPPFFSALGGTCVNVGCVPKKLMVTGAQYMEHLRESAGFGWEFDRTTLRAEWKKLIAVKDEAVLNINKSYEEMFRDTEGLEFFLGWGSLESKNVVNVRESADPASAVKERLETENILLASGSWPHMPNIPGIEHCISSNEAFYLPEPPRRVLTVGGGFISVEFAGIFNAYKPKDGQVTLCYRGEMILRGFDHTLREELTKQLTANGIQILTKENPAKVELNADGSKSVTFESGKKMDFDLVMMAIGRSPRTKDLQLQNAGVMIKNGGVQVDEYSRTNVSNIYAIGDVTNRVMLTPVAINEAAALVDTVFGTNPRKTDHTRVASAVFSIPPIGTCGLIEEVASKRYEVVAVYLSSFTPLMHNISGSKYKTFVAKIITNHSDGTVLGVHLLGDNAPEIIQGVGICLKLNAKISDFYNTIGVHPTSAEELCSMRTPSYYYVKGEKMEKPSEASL

A word on the IC50: it is the concentration needed to halve the response being measured.

`CN(C)CCCN1c2ccccc2CCc2ccc(Cl)cc21` [CLOMIPRAMINE] had an IC50 of 3.8 µM.

(Values after ChEMBL document CHEMBL5260817, “Polyamine-based analogs and conjugates as antikinetoplastid agents” (Eur J Med Chem, 2017).)
